Data from PubChem BioAssay AID504648 (National Center for Advancing Translational Sciences (NCATS), 2011).
Among all 390,000 compounds or so, about 610 (0.16%) were called active. The shares of active, inactive and inconclusive entries below differ from those in the screen. Calls come from the whole dose curve; as a rule, active = well fitted inhibition curve with a large enough effect; inconclusive = small, poorly fitted or top-dose-only effect, or effect the other way, or another doubt; inactive = no such curve, though single readings can be large or run the other way. Where the call is inconclusive, the potency comes from a doubtful curve fit.

Assay: Nrf2 qHTS screen for inhibitors: counterscreen for cytotoxicity
Conditions: A549 ARE-Fluc cells, CellTiter-Fluor viability, 18-24 h; activity change, negative = cytotoxicity: at 46 µM (top of the series)
How it was run: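 A549 ARE_Fluc cells in 5% FBS OPTI-MEM were exposed to compounds in concentration-response for 18-24 h at 37 deg C. Viability was read by CellTiter-Fluor fluorescence (Ex 405/Em 525) after 30 min, before the luciferase read.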
% is set by controls: 0 for no effect and ±100 for the full control effect; potency is the fitted concentration of half-maximal effect.

Compound	activity change, negative = cytotoxicity	Potency
Cc1nn(C)c(C)c1S(=O)(=O)N(CC(=O)N1CCN(c2ccccc2)CC1)c1ccc(C(C)C)cc1	inactive: -1.14%	–
CCn1c(C)nc2cc(C(=O)NNS(=O)(=O)c3ccccc3F)ccc21	inactive: -3.29%	–
O=C(O)c1cc([N+](=O)[O-])ccc1NCCO	–	inconclusive: 23.1 µM [falling, single point]
O=C1C2=C(Nc3ccccc3SC2c2ccccc2C(F)(F)F)c2ccccc21 (stereo not drawn)	–	inconclusive: 23.1 µM [falling, single point]
CCOCCCNC(=O)C(c1ccc(C)cc1)N(Cc1cccs1)C(=O)c1ccccc1O (stereo not drawn)	–	inconclusive: 29.1 µM [falling, partial curve, poor fit]
O=C(NCCN1CCOCC1)c1ccc2c(c1)N(Cc1ccc(Cl)cc1)CCS2	–	inconclusive: 29.1 µM [falling, single point]
CC1Cc2cc(S(=O)(=O)N(C)c3ccc(Br)cc3)ccc2N1C(=O)C1CC1 (stereo not drawn)	inactive: -2.72%	–
COc1ccc(C(=O)NCC(c2ccc3c(c2)OCO3)N2CCN(c3ccc(OC)cc3)CC2)cc1 (stereo not drawn)	–	inconclusive: 14.6 µM [falling, partial curve, poor fit]
C/C(Cl)=C\C[N+](C)(C)CC(=O)OCCc1ccccc1	–	inconclusive: 4.11 µM [activator, full curve, poor fit]
COC(=O)CN1C(=S)N(c2ccc(OC)cc2)C(=O)/C1=C/c1ccc(N2CCOCC2)cc1	–	inconclusive: 29.1 µM [falling, single point]
CCCCC(=O)OC1=C(C(=O)c2ccccc2)N(CC)S(=O)(=O)c2ccccc21	–	inconclusive: 20.6 µM [falling, partial curve]
Cc1ncc(CO)c(/C=N/NC(=S)Nc2cccc(Cl)c2)c1O	inactive: -12.9%	–
CCN1CCN(c2cc(C)c3cc(NC(=O)c4cncc(Br)c4)ccc3n2)CC1	–	inconclusive: 16.4 µM [falling, single point]
CNS(=O)(=O)c1ccc2c3c(cccc13)C(=O)N2	–	inconclusive: 29.1 µM [activator, partial curve, poor fit]
COc1ccccc1N1CCN(S(=O)(=O)c2c(C)nc3sc(C)c(C)n3c2=O)CC1	inactive: 8.93%	–
O=C(O)c1cc([N+](=O)[O-])ccc1NCCCc1ccccc1	–	inconclusive: 18.4 µM [falling, single point]
CCOc1nonc1C(=N)/C(C(C)=O)=C(\C)O	–	inconclusive: 32.6 µM [falling, partial curve, poor fit]
Cc1cccc(C(=O)N(Cc2nc3ccccc3c(=O)[nH]2)C2CCCCC2)c1	–	inconclusive: 32.6 µM [falling, partial curve, poor fit]
COc1ccc(NC(=O)C2CCC(=O)N2C(=O)OCc2ccccc2)cc1 (stereo not drawn)	–	inconclusive: 3.26 µM [falling, partial curve, poor fit]
O=C(NCC1CCCN1S(=O)(=O)c1cccs1)c1ccccc1 (stereo not drawn)	inactive: -4.28%	–
COc1ccc(-c2csc3ncnc(N4CCN(c5ccccc5OC)CC4)c23)cc1	–	inconclusive: 29.1 µM [falling, single point]
CCCCC(=O)OC1=C(C(=O)c2ccccc2)N(C)S(=O)(=O)c2ccccc21	–	inconclusive: 23.1 µM [falling, single point]
CC(C)NC(=O)NC(=O)CSc1nnc(COc2ccccc2F)n1C(C)C1CC2CCC1C2 (stereo not drawn)	–	inconclusive: 35.5 µM [falling, single point]

Compound	activity change, negative = cytotoxicity	Potency
CC(/C=C/c1ccc(N(C)C)cc1)=N\N=C(/N)SC1CC(=O)N(c2ccc(C(=O)O)cc2)C1=O (stereo not drawn)	–	inconclusive: 11.6 µM [falling, partial curve, poor fit]
CN(CC(=O)NC(=O)NC1CCCCC1)CC(=O)Nc1ccc(OC(F)(F)F)cc1	–	inconclusive: 29.1 µM [falling, single point]
Cc1cc(Oc2ccc(=O)n(C)n2)nc(SCc2ccccc2)n1	–	inconclusive: 0.0073 µM [activator, full curve, poor fit]
CC[n+]1ccccc1/C=C1\Sc2ccc(C)cc2N1C	–	inconclusive: 14.6 µM [falling, partial curve, poor fit]
O=c1c2ccccc2c(-c2n[nH]c(=S)o2)nn1Cc1ccccc1	inactive: -3.47%	–
CN(C)C1C(=O)c2ccccc2C1=O	inactive: 2.63%	–
Cc1nn(-c2ccccc2)c2c1C(O)CC(C)(C)C2 (stereo not drawn)	inactive: 3.05%	–
CCOC(=O)CC(=O)CSc1nnc2c(n1)[nH]c1ccccc12	–	inconclusive: 1.64 µM [falling, partial curve, poor fit]
COc1ccc(N2C(=O)c3cccc4cccc(c34)C2=O)nn1	–	inconclusive: 23.1 µM [falling, single point]
CC(=O)Nc1ccc(CN(C)CC2CCCN(CCc3cccc(C(F)(F)F)c3)C2)cc1 (stereo not drawn)	–	inconclusive: 0.259 µM [activator, full curve, poor fit]
OC(CN1CCOCC1)c1ccc(F)cc1 (stereo not drawn)	–	inconclusive: 29.1 µM [activator, single point]
CCc1ccc2c(c1)-c1ccccc1S(=O)(=O)N2CC(=O)N1CCC(C)CC1	inactive: -8.75%	–
CC(C)(C)c1ccc2c(c1)OC(C(=O)N/N=C\c1ccc[nH]1)CO2 (stereo not drawn)	–	active: 8.2 µM
Cc1ccc(OCCNC(=O)c2cncc(Br)c2)cc1C	–	inconclusive: 25.9 µM [falling, single point]
O=C(NCc1ccco1)c1ccc2c(c1)N(Cc1ccccc1F)C(=O)c1ccccc1S2=O (stereo not drawn)	inactive: -14.3%	–
c1cc(CNc2ccc3c(c2)OCCO3)ccn1	inactive: -2.96%	–
CCOc1ccc(N(CC(=O)Nc2ccc(CC)cc2)S(=O)(=O)c2c(C)[nH]c(=O)[nH]c2=O)cc1	–	inconclusive: 32.6 µM [activator, single point]
CC(C)(C)c1ccc(C(=O)N2CCN(CCNC(=O)C(=O)NCc3ccc(Cl)cc3)CC2)cc1	–	inconclusive: 16.4 µM [falling, single point]
CC(C)CN(CCCNC(=O)c1cn(C)c2ccc(S(=O)(=O)N(C)C3CCCCC3)cc2c1=O)CC(C)C	inactive: -1.51%	–
COc1cccc(NC(=O)C(CCSC)NC(=O)C2CCC(C)CC2)c1 (stereo not drawn)	inactive: 0.654%	–
CCC(=NC)C1=C(O)CC(c2ccccc2)CC1=O (stereo not drawn)	inactive: -2.95%	–
COc1ccccc1CNC(=O)c1ccc2nc3[nH]c4ccccc4c3nc2c1	–	inconclusive: 23.1 µM [falling, single point]
O=C(COC(=O)c1ccc([N+](=O)[O-])o1)NCc1ccccc1	inactive: 1.27%	–

Compound	activity change, negative = cytotoxicity	Potency
Cc1nn(C)cc1/C=C1\CCC/C(=C\c2cn(C)nc2C)C1=O	–	inconclusive: 15.8 µM [falling, partial curve, poor fit]
CCOc1ccc(S(=O)(=O)N(C(=O)c2ccncc2)c2ccc3oc(C)c(C(=O)OC)c3c2)cc1	–	inconclusive: 20.6 µM [falling, partial curve, poor fit]
CC[C@H](CO)Nc1nc(Nc2cccc(Cl)c2)c2ncn(C(C)C)c2n1	–	inconclusive: 23.1 µM [falling, single point]
CCC1CCCCN1CCCNC(=O)c1ccc2nc(N3CCC(C)CC3)sc2c1 (stereo not drawn)	–	inconclusive: 14.6 µM [falling, partial curve, poor fit]
CN(c1ccccc1)C1CCCCC1NS(=O)(=O)c1ccc(Cl)cc1 (stereo not drawn)	inactive: -7.37%	–
COc1cc(OC)c2ccc(=O)oc2c1C(CCN1CCCC1)c1ccc2c(c1)OCO2 (stereo not drawn)	–	active: 18.4 µM
COc1cc(CNc2ccc3[nH]c(=O)[nH]c3c2)cc(Cl)c1OCc1ccccc1F	inconclusive: -57.9% [activator]	–
Cc1ccc(-n2c(Cl)c(Cl)nc(Cl)c2=O)cc1	–	inconclusive: 20.6 µM [falling, single point]
O=C(CN1CCCC1)NC1C2CC3CC(C2)CC1C3 (stereo not drawn)	–	inconclusive: 5.8 µM [activator, partial curve, poor fit]
O=C1N=c2ccccc2=C1c1sc(=O)[nH]c1O	–	inconclusive: 29.1 µM [falling, single point]
O=C1NC[C@@H](Cc2cccc3ccccc23)N(CC2(c3ccccc3)CC2)C1=O	–	inconclusive: 18.4 µM [falling, single point]
COc1ccccc1Cn1c(CNS(=O)(=O)c2cccc([N+](=O)[O-])c2)nc2cccnc21	inactive: -0.724%	–
O=C(CCN1C(=O)c2ccccc2S1(=O)=O)Nc1cc(Cl)ccc1Cl	inactive: -1.62%	–
COC(=O)c1sccc1NC(=O)c1csc2c1CCCC2	–	inconclusive: 29.1 µM [activator, partial curve, poor fit]
CCN1C(=O)/C(=C/C=C2/Sc3ccccc3N2CCO)SC1=S	–	inconclusive: 2.91 µM [falling, full curve]
O=C1Nc2cc(C(=O)NCCCN3CCCC3)ccc2S/C1=C/c1ccccc1F	inactive: -3.28%	–
CCOC(=O)c1cccc(NC(=O)c2cc(S(=O)(=O)N3CCCCCC3)cn2C)c1	inactive: -1.65%	–
CCOc1cc(/C=N/NC(=O)c2ccc(CN3CCOCC3)cc2)ccc1OCc1ccccc1	inactive: -2.21%	–
CCC(C)NC(=O)C1CCN(c2nc(OC)nc(OC)n2)CC1 (stereo not drawn)	–	inconclusive: 6.51 µM [activator, partial curve, poor fit]
Cc1cc(C)cc(Nc2cc(C(=O)NCCCN(Cc3ccccc3)C(C)C)c3ccccc3n2)c1	–	inconclusive: 29.1 µM [falling, single point]
CCC(C)Nc1nc(N)c([N+](=O)[O-])c(Nc2ccccc2OC)n1 (stereo not drawn)	–	inconclusive: 18.4 µM [falling, partial curve]
CN(C)CCCN(C(=O)CCOc1ccccc1)c1nc2c(F)cccc2s1	–	inconclusive: 7.31 µM [falling, partial curve]

Four entries from above, set out differently.
CCOc1nonc1C(=N)/C(C(C)=O)=C(\C)O
  Potency: inconclusive: 32.6 µM [falling, partial curve, poor fit]
O=C(NCc1ccco1)c1ccc2c(c1)N(Cc1ccccc1F)C(=O)c1ccccc1S2=O (stereo not drawn)
  activity change, negative = cytotoxicity: inactive: -14.3%
CCC1CCCCN1CCCNC(=O)c1ccc2nc(N3CCC(C)CC3)sc2c1 (stereo not drawn)
  Potency: inconclusive: 14.6 µM [falling, partial curve, poor fit]
Cc1ccc(-n2c(Cl)c(Cl)nc(Cl)c2=O)cc1
  Potency: inconclusive: 20.6 µM [falling, single point]
